Experimental data: paper doi:10.1101/2020.07.06.189761
No constants are given. Whether binding was seen depends on the method and setting. Some results given as binding are weak or reduced against the parent protein; the word gives no strength. Tags and fused reporters may be left off the sequences shown. One block for each binder: values may come before it.

Molecular target: T1, Esa1 subunit of the S. cerevisiae Piccolo NuA4 complex, 6X-His tagged (S. cerevisiae) (UniProt Q08649)
T1 sequence: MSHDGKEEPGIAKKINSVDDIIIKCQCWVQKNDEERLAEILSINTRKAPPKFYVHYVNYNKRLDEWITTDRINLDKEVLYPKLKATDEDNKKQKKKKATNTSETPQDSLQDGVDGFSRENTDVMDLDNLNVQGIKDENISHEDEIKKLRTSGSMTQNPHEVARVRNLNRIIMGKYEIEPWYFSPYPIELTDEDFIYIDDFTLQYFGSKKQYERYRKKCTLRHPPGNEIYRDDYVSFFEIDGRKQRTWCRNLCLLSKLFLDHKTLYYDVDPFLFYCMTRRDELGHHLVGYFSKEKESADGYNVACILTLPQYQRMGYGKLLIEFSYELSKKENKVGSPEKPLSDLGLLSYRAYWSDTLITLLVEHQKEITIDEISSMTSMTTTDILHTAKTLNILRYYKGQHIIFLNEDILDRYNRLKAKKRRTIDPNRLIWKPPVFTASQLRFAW
Test: pull-down

binding: binds
B1: Yng2 subunit of the S. cerevisiae Piccolo NuA4 complex (protein, UniProt P38806 1-282)
chain: MDPSLVLEQTIQDVSNLPSEFRYLLEEIGSNDLKLIEEKKKYEQKESQIHKFIRQQGSIPKHPQEDGLDKEIKESLLKCQSLQREKCVLANTALFLIARHLNKLEKNIALLEEDGVLAPVEEDGDMDSAAEASRESSVVSNSSVKKRRAASSSGSVPPTLKKKKTSRTSKLQNEIDVSSREKSVTPVSPSIEKKIARTKEFKNSRNGKGQNGSPENEEEDKTLYCFCQRVSFGEMVACDGPNCKYEWFHYDCVNLKEPPKGTWYCPECKIEMEKNKLKRKRN

binding: binds
B2: Epl1 subunit of the S. cerevisiae Piccolo NuA4 complex (protein, UniProt P43572 1-832)
chain: MPTPSNAIEINDGSHKSGRSTRRSGSRSAHDDGLDSFSKGDSGAGASAGSSNSRFRHRKISVKQHLKIYLPNDLKHLDKDELQQREVVEIETGVEKNEEKEVHLHRILQMGSGHTKHKDYIPTPDASMTWNEYDKFYTGSFQETTSYIKFSATVEDCCGTNYNMDERDETFLNEQVNKGSSDILTEDEFEILCSSFEHAIHERQPFLSMDPESILSFEELKPTLIKSDMADFNLRNQLNHEINSHKTHFITQFDPVSQMNTRPLIQLIEKFGSKIYDYWRERKIEVNGYEIFPQLKFERPGEKEEIDPYVCFRRREVRHPRKTRRIDILNSQRLRALHQELKNAKDLALLVAKRENVSLNWINDELKIFDQRVKIKNLKRSLNISGEDDDLINHKRKRPTIVTVEQREAELRKAELKRAAAAAAAAKAKNNKRNNQLEDKSSRLTKQQQQQLLQQQQQQQQNALKTENGKQLANASSSSTSQPITSHVYVKLPSSKIPDIVLEDVDALLNSKEKNARKFVQEKMEKRKIEDADVFFNLTDDPFNPVFDMSLPKNFSTSNVPFASIASSKFQIDRSFYSSHLPEYLKGISDDIRIYDSNGRSRNKDNYNLDTKRIKKTELYDPFQENLEIHSREYPIKFRKRVGRSNIKYVDRMPNFTTSSTKSACSLMDFVDFDSIEKEQYSREGSNDTDSINVYDSKYDEFVRLYDKWKYDSPQNEYGIKFSDEPARLNQISNDTQVIRFGTMLGTKSYEQLREATIKYRRDYITRLKQKHIQHLQQQQQQQQQQQQQAQQQKQKSQNNNSNSSNSLKKLNDSLINSEAKQNSSITQKNSS
